These are yes or no findings as the source states them, for the method shown. Binding seen in cells or lysates may run through a third protein. A yes stands for co-enrichment or nearness to the bait. Other partners may have been found. For some of these results: Sequences can lack the tags named with a protein.
Key:
[1] = target: T1, NAT10 (endogenous, mouse testis) (mouse (endogenous in testis)) (UniProt Q8K224); assay: affinity purification with mass spectrometry; endogenous NAT10 from wild-type mouse testis lysate, purified with anti-NAT10 antibody-conjugated beads; IgG as negative control; mass spectrometry
T1 sequence: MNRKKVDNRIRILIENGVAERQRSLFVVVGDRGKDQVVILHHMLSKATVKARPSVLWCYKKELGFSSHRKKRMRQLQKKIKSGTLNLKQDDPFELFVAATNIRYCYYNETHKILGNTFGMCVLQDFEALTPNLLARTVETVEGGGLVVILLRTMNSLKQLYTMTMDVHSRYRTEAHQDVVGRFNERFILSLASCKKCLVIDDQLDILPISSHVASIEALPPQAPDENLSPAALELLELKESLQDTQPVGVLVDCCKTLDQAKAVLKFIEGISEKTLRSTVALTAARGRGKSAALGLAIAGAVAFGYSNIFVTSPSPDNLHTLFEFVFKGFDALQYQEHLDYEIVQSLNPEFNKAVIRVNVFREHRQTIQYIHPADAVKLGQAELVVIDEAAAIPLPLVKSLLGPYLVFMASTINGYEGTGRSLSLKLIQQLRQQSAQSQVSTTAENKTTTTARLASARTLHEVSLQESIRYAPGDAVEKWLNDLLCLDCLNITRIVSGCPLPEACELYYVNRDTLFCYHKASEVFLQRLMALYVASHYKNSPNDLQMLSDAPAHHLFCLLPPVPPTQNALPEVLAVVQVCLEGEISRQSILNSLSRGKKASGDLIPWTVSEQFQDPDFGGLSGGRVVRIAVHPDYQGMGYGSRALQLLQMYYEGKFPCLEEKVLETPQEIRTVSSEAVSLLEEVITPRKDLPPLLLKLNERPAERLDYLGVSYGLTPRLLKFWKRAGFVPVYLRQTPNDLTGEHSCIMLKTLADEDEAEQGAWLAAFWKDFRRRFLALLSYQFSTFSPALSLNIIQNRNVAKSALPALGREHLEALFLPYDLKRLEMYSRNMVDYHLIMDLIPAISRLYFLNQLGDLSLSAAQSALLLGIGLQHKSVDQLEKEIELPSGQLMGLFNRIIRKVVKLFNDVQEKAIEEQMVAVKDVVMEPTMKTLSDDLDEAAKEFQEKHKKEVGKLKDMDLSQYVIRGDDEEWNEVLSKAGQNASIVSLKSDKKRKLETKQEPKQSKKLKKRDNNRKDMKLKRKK

Sequences of proteins named here, by UniProt entry; tags and fusion partners are left off.
UniProt Q61990: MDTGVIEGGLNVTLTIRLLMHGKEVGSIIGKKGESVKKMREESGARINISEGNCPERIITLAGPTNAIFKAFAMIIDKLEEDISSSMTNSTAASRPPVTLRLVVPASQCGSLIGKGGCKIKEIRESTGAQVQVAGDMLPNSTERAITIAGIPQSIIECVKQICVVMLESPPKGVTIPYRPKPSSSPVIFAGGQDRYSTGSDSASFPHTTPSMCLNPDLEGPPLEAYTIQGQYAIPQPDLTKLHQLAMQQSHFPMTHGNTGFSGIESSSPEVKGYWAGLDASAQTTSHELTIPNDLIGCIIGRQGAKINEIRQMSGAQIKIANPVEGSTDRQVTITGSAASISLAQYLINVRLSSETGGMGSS
UniProt Q13148: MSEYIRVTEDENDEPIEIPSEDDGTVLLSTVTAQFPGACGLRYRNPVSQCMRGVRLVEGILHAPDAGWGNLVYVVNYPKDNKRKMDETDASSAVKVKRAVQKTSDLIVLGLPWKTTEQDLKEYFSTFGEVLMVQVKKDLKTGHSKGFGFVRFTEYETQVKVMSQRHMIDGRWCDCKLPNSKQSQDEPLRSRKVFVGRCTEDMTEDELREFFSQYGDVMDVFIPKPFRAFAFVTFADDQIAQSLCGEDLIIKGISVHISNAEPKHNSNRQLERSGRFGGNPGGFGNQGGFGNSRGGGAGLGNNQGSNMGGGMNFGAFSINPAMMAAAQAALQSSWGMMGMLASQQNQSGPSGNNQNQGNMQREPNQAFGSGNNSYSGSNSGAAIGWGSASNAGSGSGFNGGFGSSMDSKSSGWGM
UniProt Q921F2: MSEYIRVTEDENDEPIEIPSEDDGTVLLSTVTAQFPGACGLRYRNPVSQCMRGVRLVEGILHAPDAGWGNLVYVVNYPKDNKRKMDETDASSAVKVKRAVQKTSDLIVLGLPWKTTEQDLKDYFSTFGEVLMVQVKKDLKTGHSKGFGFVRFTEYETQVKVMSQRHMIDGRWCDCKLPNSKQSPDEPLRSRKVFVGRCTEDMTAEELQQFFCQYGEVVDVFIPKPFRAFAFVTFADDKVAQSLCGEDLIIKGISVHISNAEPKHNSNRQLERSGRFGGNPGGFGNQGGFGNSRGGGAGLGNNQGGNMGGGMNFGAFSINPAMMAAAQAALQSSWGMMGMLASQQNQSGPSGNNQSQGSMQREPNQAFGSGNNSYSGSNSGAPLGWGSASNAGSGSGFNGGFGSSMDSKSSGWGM

[2] = target: T2, FLAG-tagged NAT10 (human) (UniProt Q9H0A0); assay: affinity purification with mass spectrometry; FLAG-NAT10 from HEK293T cells transfected for 24 h, enriched on anti-FLAG affinity gel; empty FLAG vector as negative control; SDS-PAGE and mass spectrometry
T2 sequence: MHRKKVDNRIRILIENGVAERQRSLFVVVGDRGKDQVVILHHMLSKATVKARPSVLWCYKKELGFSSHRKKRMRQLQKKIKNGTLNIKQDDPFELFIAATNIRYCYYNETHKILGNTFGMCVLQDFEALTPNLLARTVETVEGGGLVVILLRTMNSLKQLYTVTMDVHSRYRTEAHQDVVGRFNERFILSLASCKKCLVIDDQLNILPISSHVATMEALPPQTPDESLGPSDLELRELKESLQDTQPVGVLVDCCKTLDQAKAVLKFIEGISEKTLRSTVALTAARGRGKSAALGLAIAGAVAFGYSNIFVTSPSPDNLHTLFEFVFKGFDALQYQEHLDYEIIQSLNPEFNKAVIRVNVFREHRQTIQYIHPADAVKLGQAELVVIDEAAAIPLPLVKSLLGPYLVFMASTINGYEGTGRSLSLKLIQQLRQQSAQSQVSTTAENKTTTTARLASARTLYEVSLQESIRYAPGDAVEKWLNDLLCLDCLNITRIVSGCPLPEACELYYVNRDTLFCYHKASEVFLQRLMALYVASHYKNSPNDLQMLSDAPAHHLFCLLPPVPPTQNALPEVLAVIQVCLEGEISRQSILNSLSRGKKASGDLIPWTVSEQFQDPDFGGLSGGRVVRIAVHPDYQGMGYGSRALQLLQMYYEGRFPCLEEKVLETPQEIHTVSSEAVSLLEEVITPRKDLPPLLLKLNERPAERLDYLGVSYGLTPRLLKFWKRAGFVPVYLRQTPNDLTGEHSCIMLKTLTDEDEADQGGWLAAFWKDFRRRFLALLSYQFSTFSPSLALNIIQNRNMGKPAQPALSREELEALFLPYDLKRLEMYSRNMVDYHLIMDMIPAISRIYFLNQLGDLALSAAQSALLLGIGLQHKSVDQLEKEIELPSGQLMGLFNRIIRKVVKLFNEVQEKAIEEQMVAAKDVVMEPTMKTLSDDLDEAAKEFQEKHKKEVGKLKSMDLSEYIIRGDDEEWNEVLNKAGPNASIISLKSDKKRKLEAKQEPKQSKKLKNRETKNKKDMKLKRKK

In the case of “PCBP2 (endogenous, mouse testis) (from UniProt Q61990 1-362)”, the binding [1] is reported as “binds”.

In the case of “TDP43 (endogenous, HEK293T) (from UniProt Q13148 1-414)”, the binding [2] is reported as “binds”.

In the case of “TDP43 (endogenous, mouse testis) (from UniProt Q921F2 1-414)”, the binding [1] is reported as “binds”.

B1: HnRNP M (endogenous, HEK293T) (protein, UniProt P52272 1-730)
chain: MAAGVEAAAEVAATEIKMEEESGAPGVPSGNGAPGPKGEGERPAQNEKRKEKNIKRGGNRFEPYANPTKRYRAFITNIPFDVKWQSLKDLVKEKVGEVTYVELLMDAEGKSRGCAVVEFKMEESMKKAAEVLNKHSLSGRPLKVKEDPDGEHARRAMQKVMATTGGMGMGPGGPGMITIPPSILNNPNIPNEIIHALQAGRLGSTVFVANLDYKVGWKKLKEVFSMAGVVVRADILEDKDGKSRGIGTVTFEQSIEAVQAISMFNGQLLFDRPMHVKMDERALPKGDFFPPERPQQLPHGLGGIGMGLGPGGQPIDANHLNKGIGMGNIGPAGMGMEGIGFGINKMGGMEGPFGGGMENMGRFGSGMNMGRINEILSNALKRGEIIAKQGGGGGGGSVPGIERMGPGIDRLGGAGMERMGAGLGHGMDRVGSEIERMGLVMDRMGSVERMGSGIERMGPLGLDHMASSIERMGQTMERIGSGVERMGAGMGFGLERMAAPIDRVGQTIERMGSGVERMGPAIERMGLSMERMVPAGMGAGLERMGPVMDRMATGLERMGANNLERMGLERMGANSLERMGLERMGANSLERMGPAMGPALGAGIERMGLAMGGGGGASFDRAIEMERGNFGGSFAGSFGGAGGHAPGVARKACQIFVRNLPFDFTWKMLKDKFNECGHVLYADIKMENGKSKGCGVVKFESPEVAERACRMMNGMKLSGREIDVRIDRNA
For B1, the binding [2] was “binds”.
